Test results as given in paper PMC3115958.
These are yes or no findings as the source states them, for the method shown. Binding seen in cells or lysates may run through a third protein. Some entries that bind do so weakly or less than the wild type.

The chains behind the UniProt entries cited, without tags or fusion partners. Where a name states a change or a piece, a line headed by the entry shows the natural chain unless it says otherwise. A line that says so, or that is headed by a name, gives the form on record, which may keep a tag or linker. Residues count along the entry.
UniProt P28799: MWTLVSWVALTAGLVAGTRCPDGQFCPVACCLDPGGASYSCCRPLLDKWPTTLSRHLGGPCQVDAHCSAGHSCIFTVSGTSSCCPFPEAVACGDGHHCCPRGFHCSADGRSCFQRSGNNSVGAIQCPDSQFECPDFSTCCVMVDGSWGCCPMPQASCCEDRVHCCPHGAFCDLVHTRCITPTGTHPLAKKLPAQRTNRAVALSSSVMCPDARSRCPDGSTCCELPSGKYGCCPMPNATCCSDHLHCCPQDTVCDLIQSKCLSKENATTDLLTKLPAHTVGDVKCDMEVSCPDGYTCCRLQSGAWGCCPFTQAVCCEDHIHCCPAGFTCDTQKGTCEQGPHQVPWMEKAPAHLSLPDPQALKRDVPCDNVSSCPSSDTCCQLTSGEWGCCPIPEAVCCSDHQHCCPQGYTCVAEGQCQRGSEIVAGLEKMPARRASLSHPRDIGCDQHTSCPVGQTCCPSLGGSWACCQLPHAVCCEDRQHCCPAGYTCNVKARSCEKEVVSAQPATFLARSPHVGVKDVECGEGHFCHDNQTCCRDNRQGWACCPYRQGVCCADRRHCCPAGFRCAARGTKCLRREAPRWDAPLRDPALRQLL
Flag tagged progranulin: residues 18-593 of P28799
Flag tagged progranulin lacking the last 3 residues (QLL): residues 18-590 of P28799
Flag tagged progranulin C100: residues 494-593 of P28799
UniProt Q6PHU5, residues 74-825: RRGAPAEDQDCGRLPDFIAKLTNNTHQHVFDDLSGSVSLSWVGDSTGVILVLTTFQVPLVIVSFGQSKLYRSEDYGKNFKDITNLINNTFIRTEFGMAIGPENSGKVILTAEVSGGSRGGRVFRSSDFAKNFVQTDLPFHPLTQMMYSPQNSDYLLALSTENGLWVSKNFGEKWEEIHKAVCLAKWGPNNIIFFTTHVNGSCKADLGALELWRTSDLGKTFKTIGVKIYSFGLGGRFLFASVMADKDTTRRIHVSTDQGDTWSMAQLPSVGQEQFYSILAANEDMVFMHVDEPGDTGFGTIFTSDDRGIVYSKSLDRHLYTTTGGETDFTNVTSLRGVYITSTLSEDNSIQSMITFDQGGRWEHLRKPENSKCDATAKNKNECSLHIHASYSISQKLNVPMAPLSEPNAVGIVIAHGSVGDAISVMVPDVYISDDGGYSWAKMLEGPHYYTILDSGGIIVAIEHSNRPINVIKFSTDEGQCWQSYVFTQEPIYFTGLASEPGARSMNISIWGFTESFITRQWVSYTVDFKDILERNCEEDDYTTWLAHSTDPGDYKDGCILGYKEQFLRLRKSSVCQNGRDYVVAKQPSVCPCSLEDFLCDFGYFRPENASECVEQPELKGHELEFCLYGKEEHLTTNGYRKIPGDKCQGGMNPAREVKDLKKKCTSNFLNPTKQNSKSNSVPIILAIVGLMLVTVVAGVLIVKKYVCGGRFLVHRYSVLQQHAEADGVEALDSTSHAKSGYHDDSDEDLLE

Key:
Assay in all cases: co-IP; anti-Flag beads bound to Flag-PGRN forms from the conditioned media of transfected HEK293T cells, incubated with cell lysates (transfected HEK293T; NSC-34) for 4 hours at 4°C; 50 mM Tris pH 8.0, 150 mM NaCl, 1% Triton, 0.1% sodium deoxycholate; sortilin detected with anti-sortilin antibodies
[1] = molecular target: Flag tagged progranulin lacking the last 3 residues (QLL) (human) (UniProt P28799)
[2] = molecular target: Flag tagged progranulin (human) (UniProt P28799)
[3] = molecular target: Flag tagged progranulin C100 (human) (UniProt P28799)

binding [1]: no binding
binding [2]: binds
binding [3]: binds
Substance: sortilin in the cell lysates of NSC-34 (from UniProt Q6PHU5 74-825) (receptor)
